Measured values reported in doi:10.1101/179564.
No constants are given. Whether binding was seen depends on the method and setting. Some binding calls cover weakened binding; strength is not graded here.

Sequences of proteins named here, by UniProt entry; tags and fusion partners are left off.
UniProt P11484: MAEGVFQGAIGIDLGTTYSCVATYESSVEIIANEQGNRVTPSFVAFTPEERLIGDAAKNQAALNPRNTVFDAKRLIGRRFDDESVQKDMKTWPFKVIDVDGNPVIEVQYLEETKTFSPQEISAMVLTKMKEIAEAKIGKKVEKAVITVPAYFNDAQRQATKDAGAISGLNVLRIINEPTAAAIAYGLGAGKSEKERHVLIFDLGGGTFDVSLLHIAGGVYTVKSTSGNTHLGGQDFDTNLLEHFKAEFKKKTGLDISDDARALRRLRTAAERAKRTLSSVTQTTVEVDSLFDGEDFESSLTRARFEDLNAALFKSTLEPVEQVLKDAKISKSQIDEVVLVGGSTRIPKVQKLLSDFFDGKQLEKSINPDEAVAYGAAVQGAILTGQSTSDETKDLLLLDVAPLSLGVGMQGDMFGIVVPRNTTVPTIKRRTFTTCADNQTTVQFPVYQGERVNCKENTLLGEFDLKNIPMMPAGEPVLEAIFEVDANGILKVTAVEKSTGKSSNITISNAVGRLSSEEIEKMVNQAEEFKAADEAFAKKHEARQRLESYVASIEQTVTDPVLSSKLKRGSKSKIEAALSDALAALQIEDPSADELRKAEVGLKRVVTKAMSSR

B1: Arn3/Sit1 nascent chains at the ribosome (protein, UniProt P39980 1-628)
chain: MDPGIANHTLPEEFEEVVVPEMLEKEVGAKVDVKPTLTTSSPAPSYIELIDPGVHNIEIYAEMYNRPIYRVALFFSLFLIAYAYGLDGNIRYTFQAYATSSYSQHSLLSTVNCIKTVIAAVGQIFFARLSDIFGRFSIMIVSIIFYSMGTIIESQAVNITRFAVGGCFYQLGLTGIILILEVIASDFSNLNWRLLALFIPALPFIINTWISGNVTSAIDANWKWGIGMWAFILPLACIPLGICMLHMRYLARKHAKDRLKPEFEALNKLKWKSFCIDIAFWKLDIIGMLLITVFFGCVLVPFTLAGGLKEEWKTAHIIVPEVIGWVVVLPLYMLWEIKYSRHPLTPWDLIQDRGIFFALLIAFFINFNWYMQGDYMYTVLVVAVHESIKSATRITSLYSFVSVIVGTILGFILIKVRRTKPFIIFGISCWIVSFGLLVHYRGDSGAHSGIIGSLCLLGFGAGSFTYVTQASIQASAKTHARMAVVTSLYLATYNIGSAFGSSVSGAVWTNILPKEISKRISDPTLAAQAYGSPFTFITTYTWGTPERIALVMSYRYVQKILCIIGLVFCFPLLGCAFMLRNHKLTDSIALEGNDHLESKNTFEIEEKEESFLKNKFFTHFTSSKDRKD
B2: Itr1 nascent chains at the ribosome (protein, UniProt P30605 1-584)
chain: MGIHIPYLTSKTSQSNVGDAVGNADSVEFNSEHDSPSKRGKITLESHEIQRAPASDDEDRIQIKPVNDEDDTSVMITFNQSLSPFIITLTFVASISGFMFGYDTGYISSALISIGTDLDHKVLTYGEKEIVTAATSLGALITSIFAGTAADIFGRKRCLMGSNLMFVIGAILQVSAHTFWQMAVGRLIMGFGVGIGSLIAPLFISEIAPKMIRGRLTVINSLWLTGGQLVAYGCGAGLNYVNNGWRILVGLSLIPTAVQFTCLCFLPDTPRYYVMKGDLARATEVLKRSYTDTSEEIIERKVEELVTLNQSIPGKNVPEKVWNTIKELHTVPSNLRALIIGCGLQAIQQFTGWNSLMYFSGTIFETVGFKNSSAVSIIVSGTNFIFTLVAFFSIDKIGRRTILLIGLPGMTMALVVCSIAFHFLGIKFDGAVAVVVSSGFSSWGIVIIVFIIVFAAFYALGIGTVPWQQSELFPQNVRGIGTSYATATNWAGSLVIASTFLTMLQNITPAGTFAFFAGLSCLSTIFCYFCYPELSGLELEEVQTILKDGFNIKASKALAKKRKQQVARVHELKYEPTQEIIEDI
B3: Tna1 nascent chains at the ribosome (protein, UniProt P53322 1-534)
chain: MSNKFTMESPKHLVDDVLFISPTNDGSEEKPTEVTFQEDEGHDASLHNRSHDKKSELATEREIMATTTDDDGIPSPSHPMEKRVLRKMDIYLIPLMGMLYFLSNLDKSNIGNAEVAGLSKDIHLVGTQYNTCVTVFFATYVLFDPIGTNLLKIMGPPLMMSICLTCFGAISLGTAWVKNYAQLIVVRLLLGAFEGMIYPAINMYLSVCYRREQYALRFAFVFSAACLSSSFGGLIAYGCSKISGSLKDWQYIYIVEGCISLGFVPFYAFGLSKNLEDSWFFNKEEKEYISERYKTMNTFDPDEKFEWFQVWQAVKDVKTWASAVALFGIDLTTFGLTVFLPIIITSMGFTNVRAQLMTVPIYFLTAIVFFICAVWSDRIKLRSPFILGACLTTSIGIAIVLGSQVHGVRYFGVYILCMGIYVNAACNCLWLSGNTGNYFKRATALGINLFFGSGSGLVSGQIFVAKDKPRYIKGLSISLAFQVFSIFMTVVQIFLYKRENDKKKAIIDRCNELGEPIPYDERLSDKNPEFKYMY
B4: Pho84 nascent chains at the ribosome (protein, UniProt P25297 1-587)
chain: MSSVNKDTIHVAERSLHKEHLTEGGNMAFHNHLNDFAHIEDPLERRRLALESIDDEGFGWQQVKTISIAGVGFLTDSYDIFAINLGITMMSYVYWHGSMPGPSQTLLKVSTSVGTVIGQFGFGTLADIVGRKRIYGMELIIMIVCTILQTTVAHSPAINFVAVLTFYRIVMGIGIGGDYPLSSIITSEFATTKWRGAIMGAVFANQAWGQISGGIIALILVAAYKGELEYANSGAECDARCQKACDQMWRILIGLGTVLGLACLYFRLTIPESPRYQLDVNAKLELAAAAQEQDGEKKIHDTSDEDMAINGLERASTAVESLDNHPPKASFKDFCRHFGQWKYGKILLGTAGSWFTLDVAFYGLSLNSAVILQTIGYAGSKNVYKKLYDTAVGNLILICAGSLPGYWVSVFTVDIIGRKPIQLAGFIILTALFCVIGFAYHKLGDHGLLALYVICQFFQNFGPNTTTFIVPGECFPTRYRSTAHGISAASGKVGAIIAQTALGTLIDHNCARDGKPTNCWLPHVMEIFALFMLLGIFTTLLIPETKRKTLEEINELYHDEIDPATLNFRNKNNDIESSSPSQLQHEA
B5: Arn4/Enb1 nascent chains at the ribosome (protein, UniProt Q08299 1-606)
chain: MLETDHSRNDNLDDKSTVCYSEKTDSNVEKSTTSGLRRIDAVNKVLSDYSSFTAFGVTFSSLKTALLVALFLQGYCTGLGGQISQSIQTYAANSFGKHSQVGSINTVKSIVASVVAVPYARISDRFGRIECWIFALVLYTIGEIISAATPTFSGLFAGIVIQQFGYSGFRLLATALTGDLSGLRDRTFAMNIFLIPVIINTWVSGNIVSSVAGNVAPYKWRWGYGIFCIIVPISTLILVLPYVYAQYISWRSGKLPPLKLKEKGQTLRQTLWKFADDINLIGVILFTAFLVLVLLPLTIAGGATSKWREGHIIAMIVVGGCLGFIFLIWELKFAKNPFIPRVYLGDPTIYVALLMEFVWRLGLQIELEYLVTVLMVAFGESTLSAQRIAQLYNFLQSCTNIVVGIMLHFYPHPKVFVVAGSLLGVIGMGLLYKYRVVYDGISGLIGAEIVVGIAGGMIRFPMWTLVHASTTHNEMATVTGLLMSVYQIGDAVGASIAGAIWTQRLAKELIQRLGSSLGMAIYKSPLNYLKKYPIGSEVRVQMIESYSKIQRLLIIVSISFAAFNAVLCFFLRGFTVNKKQSLSAEEREKEKLKIKQQSWLRRVIGY
B6: Hxt3 nascent chains at the ribosome (protein, UniProt P32466 1-567)
chain: MNSTPDLISPQKSSENSNADLPSNSSQVMNMPEEKGVQDDFQAEADQVLTNPNTGKGAYVTVSICCVMVAFGGFVFGWDTGTISGFVAQTDFLRRFGMKHKDGSYYLSKVRTGLIVSIFNIGCAIGGIILAKLGDMYGRKMGLIVVVVIYIIGIIIQIASINKWYQYFIGRIISGLGVGGIAVLSPMLISEVAPKEMRGTLVSCYQLMITLGIFLGYCTNFGTKNYSNSVQWRVPLGLCFAWALFMIGGMTFVPESPRYLVEAGQIDEARASLSKVNKVAPDHPFIQQELEVIEASVEEARAAGSASWGELFTGKPAMFKRTMMGIMIQSLQQLTGDNYFFYYGTTVFNAVGMSDSFETSIVFGVVNFFSTCCSLYTVDRFGRRNCLLYGAIGMVCCYVVYASVGVTRLWPNGEGNGSSKGAGNCMIVFACFYIFCFATTWAPIAYVVISETFPLRVKSKAMSIATAANWLWGFLIGFFTPFITGAINFYYGYVFMGCMVFAYFYVFFFVPETKGLTLEEVNDMYAEGVLPWKSASWVPTSQRGANYDADALMHDDQPFYKKMFGKK
B7: Hxt1 nascent chains at the ribosome (low-affinity hexose transporter) (protein, UniProt P32465 1-570)
chain: MNSTPDLISPQKSNSSNSYELESGRSKAMNTPEGKNESFHDNLSESQVQPAVAPPNTGKGVYVTVSICCVMVAFGGFIFGWDTGTISGFVAQTDFLRRFGMKHHDGSHYLSKVRTGLIVSIFNIGCAIGGIVLAKLGDMYGRRIGLIVVVVIYTIGIIIQIASINKWYQYFIGRIISGLGVGGITVLSPMLISEVAPSEMRGTLVSCYQVMITLGIFLGYCTNFGTKNYSNSVQWRVPLGLCFAWALFMIGGMMFVPESPRYLVEAGRIDEARASLAKVNKCPPDHPYIQYELETIEASVEEMRAAGTASWGELFTGKPAMFQRTMMGIMIQSLQQLTGDNYFFYYGTIVFQAVGLSDSFETSIVFGVVNFFSTCCSLYTVDRFGRRNCLMWGAVGMVCCYVVYASVGVTRLWPNGQDQPSSKGAGNCMIVFACFYIFCFATTWAPIAYVVISECFPLRVKSKCMSIASAANWIWGFLISFFTPFITGAINFYYGYVFMGCMVFAYFYVFFFVPETKGLSLEEVNDMYAEGVLPWKSASWVPVSKRGADYNADDLMHDDQPFYKSLFSRK

molecular target: Ssb1 (Stress-Seventy subfamily B, Hsp70 heat shock protein) (S. cerevisiae) (UniProt P11484); assay: Ssb1-mediated selective ribosome profiling

| binding | Binder |
| --- | --- |
| binds | B1 |
| binds | B2 |
| binds | B3 |
| binds | B4 |
| binds | B5 |
| binds | B6 |
| binds | B7 |
